These are literature values, as cited in patent publication US11666644B2, “Peptide vaccines” (TREOS BIO LIMITED, priority 2018, dated 2023).

One data set deals with ovarian cancer antigens. Conditions: expression of the peptide's target antigen in ovarian cancers, as reported in publications; cited from earlier work.
Turning to “POC01_P6 (PSQASSGQARMFPNAPYLPS; POC01_P6 WT1)”, the “Antigen Expression” value is on record as 63%.

Turning to “POC01_P11 (ETSYEKVINYLVMLNAREPI; POC01_P11 MAGE-A9)”, the “Antigen Expression” value is reported as 37%.

As to “POC01_P2 (SGDERSDEIVLTVSNSNVEE; POC01_P2 BORIS)”, the “Antigen Expression” value is 82%.

On to “POC01_P3 (VQKEDGRVQAFGWSLPQKYK; POC01_P3 SPAG9)”, for which the “Antigen Expression” value is recorded as 76%.

Regarding “POC01_P12a (DVKEVDPTGHSFVLVTSLGL; POC01_P12a MAGE-A10)”, the “Antigen Expression” value is 52%.

As for “POC01_P7 (RRSIAGFVASINEGMTRWFS; POC01_P7 HIWI)”, the “Antigen Expression” value was 63%.

For “POC01_P8 (MQDIKMILKMVQLDSIEDLE; POC01_P8 PRAME)”, the “Antigen Expression” value is reported as 60%.

As to “POC01_P5 (AYFESLLEKREKTNFDPAEW; POC01_P5 SP17)”, the “Antigen Expression” value was 69%.

As to “POC01_P10 (REALSNKVDELAHFLLRKYR; POC01_P10 MAGE-A4)”, the “Antigen Expression” value was 37%.

Take “POC01_P9 (ANSVVSDMMVSIMKTLKIQV; POC01_P9 AKAP-3)”: the “Antigen Expression” value was 58%.

On to “POC01_P4 (EVESTPMIMENIQELIRSAQ; POC01_P4 OY-TES-1)”, for which the “Antigen Expression” value is listed as 75%.

Regarding “POC01_P1 (NSLQKQLQAVLQWIAASQFN; POC01_P1 AKAP4)”, the “Antigen Expression” value is given as 89%.

P0C01_P12b (SAQLLQARLMKEESPVVSWR): the “Antigen Expression” value is 30%.

Another data set relates to bladder cancer. Conditions: Antigen expression frequency in bladder cancers (source antigen of the epitope); cited from earlier work.
Consider “268 (FVASINLTL; PIWIL2 9mer) [compound 268]”, for which the “Antigen N %” value is 82%.

“286 (LQMSNFVNL; HAGE 9mer) [compound 286]”: the “Antigen N %” value is 24%.

With “274 (MIMENIQEL; OY-TES-1 9mer) [compound 274]”, the “Antigen N %” value was 28%.

Regarding “285 (AIWEALSVM; MAGE-A8 9mer) [compound 285]”, the “Antigen N %” value is listed as 57%.

With “270 (FQMPHQEIV; PIWIL2 9mer) [compound 270]”, the “Antigen N %” value is on record as 82%.

In the case of “282 (YVFVNTLDL; MAGE-C1 9mer) [compound 282]”, the “Antigen N %” value is reported as 27%.

As to “273 (RTYWIIIEL; EpCAM 9mer) [compound 273]”, the “Antigen N %” value is 54%.

Regarding “279 (FLFGGNNFI; CTAGE1 9mer) [compound 279]”, the “Antigen N %” value is given as 53%.

On to “278 (FSYTLLSLF; MAGE-C1 9mer) [compound 278]”, for which the “Antigen N %” value was 27%.

Regarding “280 (YVDEKAPEF; EpCAM 9mer) [compound 280]”, the “Antigen N %” value is given as 54%.

Regarding “297 (LQLHITMPF; LAGE-1 9mer) [compound 297]”, the “Antigen N %” value was 30%.

For the substance “283 (FTVSGNLLF; LAGE-1 9mer) [compound 283]”, the “Antigen N %” value is 30%.

For “290 (FSTTINYTL; MAGE-A2 9mer) [compound 290]”, the “Antigen N %” value is given as 25%.

Consider “289 (STFKNWPFL; SURVIVIN 9mer) [compound 289]”, for which the “Antigen N %” value is reported as 62%.

On to “276 (RLLEFYLAM; NY-ESO-1 9mer) [compound 276]”, for which the “Antigen N %” value is recorded as 31%.

As for “292 (TSYVKVLEY; MAGE-A1 9mer) [compound 292]”, the “Antigen N %” value is 34%.

With “277 (RAIEQLAAM; SURVIVIN 9mer) [compound 277]”, the “Antigen N %” value is reported as 62%.

With “269 (FYDPTSAMV; PIWIL2 9mer) [compound 269]”, the “Antigen N %” value is on record as 82%.

In the case of “287 (KVAELVRFL; MAGE-A8 9mer) [compound 287]”, the “Antigen N %” value was 57%.

As to “295 (YEDHFPLLF; MAGE-A10 9mer) [compound 295]”, the “Antigen N %” value was 28%.

For the substance “272 (FMFQEALKL; MAGE-A9 9mer) [compound 272]”, the “Antigen N %” value was 61%.

As to “294 (FVYGEPREL; MAGE-C2 9mer) [compound 294]”, the “Antigen N %” value is on record as 19%.

Take “281 (FAHPRKLLM; MAGE-A2 9mer) [compound 281]”: the “Antigen N %” value is reported as 25%.

With “275 (SSISVYYTL; MAGE-A9 9mer) [compound 275]”, the “Antigen N %” value was 61%.

Take “293 (MASESLSVM; MAGE-C2 9mer) [compound 293]”: the “Antigen N %” value is 19%.

For “271 (FLLTSFPTF; CTAGE1 9mer) [compound 271]”, the “Antigen N %” value is 53%.

The next data set relates to melanoma. The following applies: Antigen expression frequency in melanomas (source antigen of the epitope); cited from earlier work.
On to “198 (STFKNWPFL; Survivin 9mer) [compound 198]”, for which the “Antigen N %” value was 96%.

For “199 (HSYVLVTSL; MAGE-A11 9mer) [compound 199]”, the “Antigen N %” value is listed as 54%.

As for “207 (RALAETSYV; MAGE-A1 9mer) [compound 207]”, the “Antigen N %” value is 37%.

As to “181 (FSYTLLSLF; MAGE-C1 9mer) [compound 181]”, the “Antigen N %” value was 45%.

As for “186 (YVFVNTLDL; MAGE-C1 9mer) [compound 186]”, the “Antigen N %” value was 45%.

On to “193 (FVYGEPREL; MAGE-C2 9mer) [compound 193]”, for which the “Antigen N %” value is on record as 45%.

As to “187 (FSYTLASLL; MAGE-C1 9mer) [compound 187]”, the “Antigen N %” value is reported as 45%.

As for “196 (FTVSGNLLF; LAGE-1 9mer) [compound 196]”, the “Antigen N %” value is recorded as 35%.

As to “183 (FSSTLVSLF; MAGE-C1 9mer) [compound 183]”, the “Antigen N %” value was 45%.

With “202 (FSTSSSLIL; MAGE-C2 9mer) [compound 202]”, the “Antigen N %” value is 45%.

Regarding “195 (FTSSRMSSF; BORIS 9mer) [compound 195]”, the “Antigen N %” value was 27%.

For “205 (YEDHFPLLF; MAGE-A10 9mer) [compound 205]”, the “Antigen N %” value is 44%.

In the case of “179 (FAHPRKLLM; MAGE-A2 9mer) [compound 179]”, the “Antigen N %” value is reported as 61%.

“204 (AMDAIFGSL; MAGE-A11 9mer) [compound 204]”: the “Antigen N %” value is reported as 54%.

With “190 (HVMNPLETL; PRAME 9mer) [compound 190]”, the “Antigen N %” value is recorded as 90%.

Take “182 (RAIEQLAAM; Survivin 9mer) [compound 182]”: the “Antigen N %” value is on record as 96%.

On to “206 (YAGREHFLF; MAGE-A11 9mer) [compound 206]”, for which the “Antigen N %” value is 54%.

For “184 (FSTTINYTL; MAGE-A2 9mer) [compound 184]”, the “Antigen N %” value was 61%.

For the substance “180 (KAMVQAWPF; PRAME 9mer) [compound 180]”, the “Antigen N %” value is listed as 90%.

Consider “200 (MTFGRLHRI; SSX-1 9mer) [compound 200]”, for which the “Antigen N %” value was 25%.

As for “192 (MASESLSVM; MAGE-C2 9mer) [compound 192]”, the “Antigen N %” value is reported as 45%.

“188 (YIAQFTSQF; PRAME 9mer) [compound 188]”: the “Antigen N %” value is given as 90%.

With “191 (RLLEFYLAM; Ny-ESO-1 9mer) [compound 191]”, the “Antigen N %” value is 38%.

Take “189 (MTSSFSSTL; MAGE-C1 9mer) [compound 189]”: the “Antigen N %” value is 45%.

For a further data set, the system named is breast cancer antigens. The following applies: expression of the peptide's target antigen in breast cancers, as reported in publications; cited from earlier work.
Consider “PBRC01_cP1 (ISDTKDYFMSKTLGIGRLKR; PBRC01_cP1 FSIP1)”, for which the “Antigen Expression” value is recorded as 49%.

“PBRC01_cP7 (MASFRKLTLSEKVPPNHPSR; PBRC01_cP7 HOM-TES-85)”: the “Antigen Expression” value is reported as 47%.

As to “PBRC01_cP11 (PEIFGKASESLQLVFGIDVK; PBRC01_cP11 MAGE-A1)”, the “Antigen Expression” value is reported as 37%.

In the case of “PBRC01_cP10 (EYEREETRQVYMDLNNNIEK; PBRC01_cP10 SCP-1)”, the “Antigen Expression” value is 38%.

For “PBRC01_cP8 (KRASQYSGQLKVLIAENTML; PBRC01_cP8 NY-BR-1)”, the “Antigen Expression” value was 47%.

Turning to “PBRC01_cP9 (VDPAQLEFMFQEALKLKVAE; PBRC01_cP9 MAGE-A9)”, the “Antigen Expression” value is 44%.

For “PBRC01_cP2 (FDRNTESLFEELSSAGSGLI; PBRC01_cP2 SPAG9)”, the “Antigen Expression” value was 88%.

Consider “PBRC01_cP6 (ENAHGQSLEEDSALEALLNF; PBRC01_cP6 NY-SAR-35)”, for which the “Antigen Expression” value was 49%.

Take “PBRC01_cP12 (DSESSFTYTLDEKVAELVEF; PBRC01_cP12 MAGE-C2)”: the “Antigen Expression” value is reported as 21%.

Turning to “PBRC01_cP5 (DVKEVDPTSHSYVLVTSLNL; PBRC01_cP5 MAGE-A11)”, the “Antigen Expression” value is 59%.

Regarding “PBRC01_cP4 (SAVFHERYALIQHQKTHKNE; PBRC01_cP4 BORIS)”, the “Antigen Expression” value is 71%.

Regarding “PBRC01_cP3 (SQKMDMSNIVLMLIQKLLNE; PBRC01_cP3 AKAP4)”, the “Antigen Expression” value is 85%.
